Columns and labels:
[1] = Analysis of Cu^2+ in spiked pond water and tap water samples
[2] = Fluorescence spectrum response of BNGT to different metal ions (selectivity and sensitivity); conditions: acetonitrile/water 1/99
[3] = Fluorescence titration with Cu^2+: linear range and detection limit; conditions: acetonitrile/water 1/99; titration and blank experiments
[4] = BNGT 10 μm, metal ions 100 μm, excitation 345 nm, 25° C.

SMILES: CCCCN1C(=O)c2cccc3c(NN=CC=NC(CO)(CO)CO)ccc(c23)C1=O [BNGT]
- Detected Cu^2+ ([1]; 392 nm, pond water, added Cu^2+ 15): 14.77 10^−6 mol/L
- Detected Cu^2+ ([1]; 392 nm, pond water, added Cu^2+ 20): 20.69 10^−6 mol/L
- Detected Cu^2+ ([1]; 392 nm, tap water, added Cu^2+ 15): 14.96 10^−6 mol/L
- Detected Cu^2+ ([1]; 392 nm, tap water, added Cu^2+ 20): 20.31 10^−6 mol/L
- Detected Cu^2+ ([1]; 754 nm, pond water, added Cu^2+ 15): 14.57 10^−6 mol/L
- Detected Cu^2+ ([1]; 754 nm, pond water, added Cu^2+ 20): 20.13 10^−6 mol/L
- Detected Cu^2+ ([1]; 754 nm, tap water, added Cu^2+ 15): 14.80 10^−6 mol/L
- Detected Cu^2+ ([1]; 754 nm, tap water, added Cu^2+ 20): 20.40 10^−6 mol/L
- enhancement of fluorescence intensity by Cu^2+ at 392 nm [2, 4]: 9.2 times
- enhancement of fluorescence intensity by Cu^2+ at 754 nm [2, 4]: 9.4 times
- fluorescence response to other individual metal ions ([2]; Fe^3+, K^+, Na^+, Mg^2+, Ni^2+, Ag^+, Cr^3+, Cd^2+, Co^2+, Zn^2+, Mn^2+, Fe^2+, Ca^2+, Hg^2+, Pb^2+): did not respond to other individual metals
- detection limit for Cu^2+ at 392 nm [3]: 2.6368e-07 mol/L
- detection limit for Cu^2+ at 754 nm [3]: 2.0156e-07 mol/L
